# Laboratory results taken from PubChem BioAssay AID1347076 (National Center for Advancing Translational Sciences (NCATS), 2019).
# The campaign covered roughly 400,000 compounds. About 13,000 (3.2%) were called active. Inconclusive results, whose numbers are uncertain, are shown with a selection of clear calls. The call rests on the fitted dose curve; in most records, active means well fitted cell-killing curve with a large enough effect; inconclusive means small, poorly fitted or top-dose-only effect, or effect the other way; inactive means flat fitted curve, though single readings scatter. Potencies beside an inconclusive call are fits to weak or partial responses and may not hold up.
# Experiment: qHTS assay for MDR1-selective chemotherapeutics: Primary screen using the drug-selected MDR subline cells KB-V1; further: nearly all actives have a fitted effect of over 60% in size
# Conditions: KB-V1 MDR cells viability, CellTiter-Glo, 72 h; activity change, negative = cytotoxicity: at 46.1 µM (top of the series)
# Method in brief: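 KB-V1 MDR subline cells in DMEM (phenol-red free, 10% FBS) exposed to compounds in qHTS concentration series for 72 h at 37 degrees C. Viability read by CellTiter-Glo luminescence; concentration-effect curves fitted after normalization and correction.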
# On the % scale 0 is the no-effect control and ±100 the full control effect; potency means the concentration at half of the fitted maximal effect.
SMILES,Potency,"activity change, negative = cytotoxicity"
CCOC(=O)C(CC)Sc1ccc2nnc(-c3ccc(F)cc3)n2n1 (centres undefined),"inconclusive: 29.1 µM [cytotoxic, single point]",–
Cc1ccc(S(=O)(=O)N(C)C)cc1NC(=O)COC(=O)CC1CCCC1,"inconclusive: 29.1 µM [rising, single point]",–
Cn1c2ccccc2c2cc(/C=N/NC(=O)c3ccc(N)cc3)ccc21,–,inactive: -22.8%
CCCCn1c(=O)[nH]c(=O)c2c1nc(-c1ccccn1)n2CC,"inconclusive: 29.1 µM [cytotoxic, single point]",–
CCCC(=O)C1=C(O)C(C(=O)OC)C(C)(C)CC1=Nc1ccncc1 (centres undefined),"inconclusive: 20.6 µM [cytotoxic, partial curve, poor fit]",–
COc1cccc(Cn2cccc(NC(=O)NCc3ccccc3)c2=O)c1,"inconclusive: 16.4 µM [cytotoxic, single point]",–
C/C=C/c1ccc(OCC(=O)Nc2cc(OC)c(OC)c(OC)c2)c(OC)c1,"inconclusive: 18.4 µM [cytotoxic, partial curve, poor fit]",–
O=[N+]([O-])c1ccc2nc(-c3ccc(Cl)cc3)[nH]c2c1,"inconclusive: 32.6 µM [cytotoxic, single point]",–
Cc1cccc(CN2CCN(C3CN(Cc4cn(Cc5ccc(Cl)cc5)nn4)S(=O)(=O)C3)CC2)c1 (centres undefined),"inconclusive: 5.8 µM [cytotoxic, partial curve]",–
CC1(C)CC(=O)C=C(c2cccc(OC(=O)c3ccc(Br)cc3)c2)C1=O,–,inactive: 0%
O=C(/C=C/c1ccc(Br)cc1)N1CCN(c2cccc(C(F)(F)F)c2)CC1,"inconclusive: 25.9 µM [cytotoxic, single point]",–
CCCCN1C(=O)C(CC(=O)NCCCCc2ccccc2)CC(C(=O)N(C(C)C)C(C)C)=C1C (centres undefined),"inconclusive: 23.1 µM [cytotoxic, single point]",–
Cc1ccc(C)c(NS(=O)(=O)c2cc(Br)cnc2N)c1,"inconclusive: 29.1 µM [cytotoxic, single point]",–
O=C1CN(C(=O)c2ccc(Cl)c([N+](=O)[O-])c2)c2ccccc2N1,–,inactive: -1.86%
COc1ccc(OC)c(C=C2CCc3ccccc3C2=O)c1,"inconclusive: 7.31 µM [cytotoxic, partial curve]",–
COc1cccc(NC(=O)CCC2CCN(C(=O)C(OC)c3ccccc3)CC2)c1 (centres undefined),"inconclusive: 16.4 µM [cytotoxic, partial curve, poor fit]",–
COc1cccc(CN(C)C(=O)CCC(=O)c2cc(Br)ccc2OC)c1,"inconclusive: 29.1 µM [rising, partial curve, poor fit]",–
CCCCN1C[C@H](c2ccc(OC)cc2)[C@@H](CC(=O)Nc2ccc(Br)cc2)C1=O,"inconclusive: 14.6 µM [cytotoxic, single point]",–
Cc1ccc(Nc2c([N+](=O)[O-])cc(C(=O)N3CC(=O)Nc4ccccc43)cc2[N+](=O)[O-])c(C)c1,–,inactive: -10.2%
C[C@@H]1C[C@H]2[C@@H]3C[C@H](F)C4=CC(=O)C=C[C@]4(C)[C@@]3(F)[C@@H](O)C[C@]2(C)[C@@]1(O)C(=O)COC(=O)C(C)(C)C,–,inactive: -6.65%
CC(Oc1ccccc1F)C(=O)NC1CCS(=O)(=O)C1 (centres undefined),–,inactive: 5.4%
CN1C(=O)c2cccc(NC(=O)C3CCCCC3)c2C1=O,"inconclusive: 25.9 µM [rising, single point]",–
O=Cc1c(-[n+]2ccccc2)nc([O-])n1-c1ccccc1,"inconclusive: 18.4 µM [rising, partial curve, poor fit]",–

# One compound at a time, from the list above.
# `CN1C(=O)c2cccc(NC(=O)C3CCCCC3)c2C1=O` in the list: Potency: inconclusive: 25.9 µM [rising, single point]
# `O=C1CN(C(=O)c2ccc(Cl)c([N+](=O)[O-])c2)c2ccccc2N1` in the list: activity change, negative = cytotoxicity: inactive: -1.86%

# Next results follow.

SMILES,Potency,"activity change, negative = cytotoxicity"
CN1C(=O)N(CC(=O)Nc2cccc(S(=O)(=O)N(C)c3ccccc3)c2)C(=O)C12CCCCC2,"inconclusive: 13 µM [cytotoxic, partial curve]",–
NNC(=O)c1ccc(Cn2cc(Cl)cn2)o1,"inconclusive: 10.3 µM [rising, partial curve, poor fit]",–
COc1ccc(NC(=S)N2CCN(Cc3ccc(C)cc3)CC2)cc1,"inconclusive: 18.4 µM [cytotoxic, partial curve]",–
CCOc1ccc(-n2cc(C(=O)NC(C)C)c3cc(OC)c(OC)cc3c2=O)cc1,"inconclusive: 20.6 µM [cytotoxic, single point]",–
Cn1nc(C(=O)Nc2cccc(C(F)(F)F)c2)c2ccccc2c1=O,active: 8.2 µM,–
Nc1nc(NCc2ccccc2)nc(NCc2ccccc2)c1[N+](=O)[O-],active: 16.4 µM,–
CC(=O)c1ccc(NC(=O)C(C)Oc2ccc(N(C)S(=O)(=O)c3ccc(C)cc3)cc2)cc1 (centres undefined),"inconclusive: 4.61 µM [cytotoxic, partial curve, poor fit]",–
CCCCc1cc(=O)oc2cc(OC(C)C(=O)NCC3CCC(C(=O)O)CC3)c(Cl)cc12 (centres undefined),–,inactive: -11.7%
O=C(CSc1nncn1-c1ccccc1)NC1CCCc2ccccc21 (centres undefined),"inconclusive: 8.2 µM [cytotoxic, partial curve]",–
O=C(NCCc1ccccc1)C1CCN(S(=O)(=O)c2ccc(-c3nn[nH]n3)cc2)CC1,–,inactive: 1.88%
Cc1ccc(-n2nnnc2-c2cnoc2-c2cccc(F)c2)cc1,–,inactive: 1.73%
CCOC(=O)C1CCN(C(=O)c2cc(S(=O)(=O)N3CCOCC3)ccc2C)CC1,–,inactive: 0%
COc1cc(CNc2ccc(N3CCN(C(C)=O)CC3)cc2)ccc1OCc1ccccc1,active: 7.31 µM,–
COc1cccc(NC(=S)N(CCCN2CCC(C)CC2)Cc2cccs2)c1,"inconclusive: 20.6 µM [cytotoxic, partial curve]",–
CN1c2ccccc2C(O)=C(C(=S)Nc2ccc(F)c(Cl)c2)S1(=O)=O,active: 16.4 µM,–
O=C(C1CCC1)N1CCc2cc(S(=O)(=O)NCCN3CCN(c4ccccc4F)CC3)ccc21,"inconclusive: 14.6 µM [cytotoxic, partial curve, poor fit]",–
O=C(O)CC(NC(=O)c1cccc([N+](=O)[O-])c1)c1ccc2c(c1)OCO2 (centres undefined),–,inactive: 14.4%
O=C(COc1ccccc1Cc1ccccc1)NCCCN1CCOCC1,"inconclusive: 4.61 µM [cytotoxic, partial curve, poor fit]",–
Cc1cccc(-c2ccc3c(c2)C2CC3CCN2Cc2ccc3c(c2)OCO3)c1 (centres undefined),–,inactive: -65.4%
CCOC(=O)C1=C(C)N(Cc2ccccc2)C(=O)NC1c1ccc(OC)cc1 (centres undefined),"inconclusive: 5.01 µM [cytotoxic, partial curve]",–
CC(=O)N(NC(N)=O)C(C)CC(=O)C1C(C)C=CCC1(C)C (centres undefined),–,inactive: -10.6%
CC(Nc1ccc(-c2nc(-c3ccncc3)no2)cc1[N+](=O)[O-])c1ccccc1 (centres undefined),–,inactive: -25%
COc1ccc(S(=O)(=O)NC(C)C(=O)NCC2CCCO2)cc1OC (centres undefined),–,inconclusive: 30.9%

# Among those listed so far, these have a COOH group:
SMILES,Potency,"activity change, negative = cytotoxicity"
CCCCc1cc(=O)oc2cc(OC(C)C(=O)NCC3CCC(C(=O)O)CC3)c(Cl)cc12 (centres undefined),–,inactive: -11.7%
O=C(O)CC(NC(=O)c1cccc([N+](=O)[O-])c1)c1ccc2c(c1)OCO2 (centres undefined),–,inactive: 14.4%

# More entries follow:

SMILES,Potency,"activity change, negative = cytotoxicity"
O=C(Nc1ccccc1)Nc1ncc([N+](=O)[O-])s1,"inconclusive: 25.9 µM [cytotoxic, single point]",–
Nc1nc(-c2ccc3c(c2)CCC(=O)N3)cs1,active: 3.66 µM,–
CC(C)(C)C(=O)C[n+]1ccccc1,–,inactive: -3.89%
Cc1ccc(C)c(OCCCCCn2ccnc2)c1,"inconclusive: 29.1 µM [cytotoxic, single point]",–
O=C(NCc1ccccc1Br)c1ccc2nc(N3CCCCC3)sc2c1,–,inactive: 6.91%
C/C(=N\Nc1nccnc1Cl)c1ccc(O)cc1,"inconclusive: 20.6 µM [cytotoxic, single point]",–
CC(=O)C(Sc1nnnn1-c1ccccc1)C(C)=O,–,inactive: 15.7%
COc1ccc(C2c3cc(OC)c(OC)cc3CC3C(=O)OCC32)cc1OC (centres undefined),"inconclusive: 0.206 µM [cytotoxic, full curve, poor fit]",–
CCN(CC)S(=O)(=O)c1ccc(OC)c(NC(=O)C(C)Oc2ccc3c(C)cc(=O)oc3c2)c1 (centres undefined),"inconclusive: 16.4 µM [cytotoxic, partial curve]",–
COC(=O)c1ccc(OCC(=O)c2ccccc2OC)cc1,"inconclusive: 18.4 µM [cytotoxic, single point]",–
CCn1c(=O)cc(SCC(=O)Nc2ccc3c(c2)OCCO3)c2ccccc21,active: 16.4 µM,–
CC1(C)OC2OC(C(=O)N/N=C/c3cc(Br)ccc3O)C3OC(C)(C)OC3C2O1 (centres undefined),active: 9.2 µM,–
Cc1ccc(NC(=O)/C=C/c2ccc([N+](=O)[O-])s2)cc1,"inconclusive: 29.1 µM [cytotoxic, single point]",–
CCc1c(C)c2cc(Cl)c(O)c(CN3CCCCC3)c2oc1=O,"inconclusive: 9.2 µM [cytotoxic, partial curve, poor fit]",–
CCOC(=O)C1(C)CCCN(C(=O)c2cccc(Cl)c2)C1 (centres undefined),–,inactive: -11.5%
COc1cc(Br)c(CNc2cc(C)ccc2C)cc1OC,"inconclusive: 20.6 µM [cytotoxic, single point]",–
CC(c1ccco1)N(C(=O)c1cc(Cl)cc(Cl)c1)c1ccccn1 (centres undefined),"inconclusive: 29.1 µM [cytotoxic, single point]",–
Cc1cccc(C(=O)N2CCN=C2SCc2ccc([N+](=O)[O-])cc2)c1,"inconclusive: 16.4 µM [cytotoxic, single point]",–
CCCCNC(=O)C(CC)Sc1nnc(-c2cccc(F)c2)c(-c2cccc(F)c2)n1 (centres undefined),"inconclusive: 3.66 µM [rising, full curve]",–
CC1=C(c2ccc(F)cc2)[N+](=O)C(C)(C)N1[O-],–,inactive: 2.89%
Cc1ccc(OCCCN2CCC(C(O)(c3ccccc3)c3ccccc3)CC2)cc1,active: 20.6 µM,–
CN(C(=O)/C=C/c1ccco1)c1ccccc1C(=O)O,"inconclusive: 11.6 µM [rising, partial curve]",–
CCOC(=O)c1ccc(NC(=O)CN(c2ccc(C)cc2)S(=O)(=O)c2c(C)noc2C)cc1,"inconclusive: 20.6 µM [cytotoxic, single point]",–
